# According to publication doi:10.1101/2024.08.24.609485:
# Chains of the proteins cited; added tags and fusions are not shown.
# UniProt Q8IZP0: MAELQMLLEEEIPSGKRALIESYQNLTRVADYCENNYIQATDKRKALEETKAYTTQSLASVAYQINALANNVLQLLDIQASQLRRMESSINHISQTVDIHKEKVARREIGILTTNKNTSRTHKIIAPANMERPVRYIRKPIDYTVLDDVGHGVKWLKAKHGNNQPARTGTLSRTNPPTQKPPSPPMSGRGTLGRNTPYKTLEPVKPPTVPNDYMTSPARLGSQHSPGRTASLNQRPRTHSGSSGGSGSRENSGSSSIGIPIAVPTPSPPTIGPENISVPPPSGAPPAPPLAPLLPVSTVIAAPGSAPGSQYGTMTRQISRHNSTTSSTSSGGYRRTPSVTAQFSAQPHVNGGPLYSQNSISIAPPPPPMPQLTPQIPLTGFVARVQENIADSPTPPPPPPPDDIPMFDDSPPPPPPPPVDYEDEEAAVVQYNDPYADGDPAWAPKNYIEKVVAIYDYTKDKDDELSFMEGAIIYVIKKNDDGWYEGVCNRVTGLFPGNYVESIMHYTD
# UniProt Q8N8S7: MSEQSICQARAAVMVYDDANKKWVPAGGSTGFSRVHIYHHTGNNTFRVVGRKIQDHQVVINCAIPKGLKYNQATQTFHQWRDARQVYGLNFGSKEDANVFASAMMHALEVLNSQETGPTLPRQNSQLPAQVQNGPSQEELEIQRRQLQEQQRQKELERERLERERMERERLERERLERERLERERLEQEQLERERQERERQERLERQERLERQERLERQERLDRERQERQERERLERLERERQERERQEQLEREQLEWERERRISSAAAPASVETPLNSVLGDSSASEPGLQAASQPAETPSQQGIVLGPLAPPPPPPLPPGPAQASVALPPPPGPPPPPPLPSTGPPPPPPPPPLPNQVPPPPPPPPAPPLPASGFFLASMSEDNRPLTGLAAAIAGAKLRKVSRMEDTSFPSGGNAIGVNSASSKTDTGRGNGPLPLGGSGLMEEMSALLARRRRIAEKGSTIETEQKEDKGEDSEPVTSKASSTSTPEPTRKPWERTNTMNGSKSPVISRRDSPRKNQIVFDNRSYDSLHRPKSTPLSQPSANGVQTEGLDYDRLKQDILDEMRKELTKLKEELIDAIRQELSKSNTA
# UniProt O00401: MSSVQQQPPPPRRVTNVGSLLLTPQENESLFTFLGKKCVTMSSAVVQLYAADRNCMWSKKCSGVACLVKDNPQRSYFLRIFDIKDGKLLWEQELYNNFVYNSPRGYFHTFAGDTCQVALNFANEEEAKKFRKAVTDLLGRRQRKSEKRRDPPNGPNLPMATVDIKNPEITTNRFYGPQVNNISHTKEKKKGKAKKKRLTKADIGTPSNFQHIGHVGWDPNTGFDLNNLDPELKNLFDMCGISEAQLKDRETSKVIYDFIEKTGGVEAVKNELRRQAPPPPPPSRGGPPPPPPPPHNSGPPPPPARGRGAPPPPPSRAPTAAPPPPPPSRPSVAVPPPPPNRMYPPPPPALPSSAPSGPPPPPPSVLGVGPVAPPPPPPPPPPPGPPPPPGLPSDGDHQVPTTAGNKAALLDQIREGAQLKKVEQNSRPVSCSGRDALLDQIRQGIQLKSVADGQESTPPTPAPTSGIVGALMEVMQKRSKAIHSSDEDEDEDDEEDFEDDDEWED
# UniProt O97758: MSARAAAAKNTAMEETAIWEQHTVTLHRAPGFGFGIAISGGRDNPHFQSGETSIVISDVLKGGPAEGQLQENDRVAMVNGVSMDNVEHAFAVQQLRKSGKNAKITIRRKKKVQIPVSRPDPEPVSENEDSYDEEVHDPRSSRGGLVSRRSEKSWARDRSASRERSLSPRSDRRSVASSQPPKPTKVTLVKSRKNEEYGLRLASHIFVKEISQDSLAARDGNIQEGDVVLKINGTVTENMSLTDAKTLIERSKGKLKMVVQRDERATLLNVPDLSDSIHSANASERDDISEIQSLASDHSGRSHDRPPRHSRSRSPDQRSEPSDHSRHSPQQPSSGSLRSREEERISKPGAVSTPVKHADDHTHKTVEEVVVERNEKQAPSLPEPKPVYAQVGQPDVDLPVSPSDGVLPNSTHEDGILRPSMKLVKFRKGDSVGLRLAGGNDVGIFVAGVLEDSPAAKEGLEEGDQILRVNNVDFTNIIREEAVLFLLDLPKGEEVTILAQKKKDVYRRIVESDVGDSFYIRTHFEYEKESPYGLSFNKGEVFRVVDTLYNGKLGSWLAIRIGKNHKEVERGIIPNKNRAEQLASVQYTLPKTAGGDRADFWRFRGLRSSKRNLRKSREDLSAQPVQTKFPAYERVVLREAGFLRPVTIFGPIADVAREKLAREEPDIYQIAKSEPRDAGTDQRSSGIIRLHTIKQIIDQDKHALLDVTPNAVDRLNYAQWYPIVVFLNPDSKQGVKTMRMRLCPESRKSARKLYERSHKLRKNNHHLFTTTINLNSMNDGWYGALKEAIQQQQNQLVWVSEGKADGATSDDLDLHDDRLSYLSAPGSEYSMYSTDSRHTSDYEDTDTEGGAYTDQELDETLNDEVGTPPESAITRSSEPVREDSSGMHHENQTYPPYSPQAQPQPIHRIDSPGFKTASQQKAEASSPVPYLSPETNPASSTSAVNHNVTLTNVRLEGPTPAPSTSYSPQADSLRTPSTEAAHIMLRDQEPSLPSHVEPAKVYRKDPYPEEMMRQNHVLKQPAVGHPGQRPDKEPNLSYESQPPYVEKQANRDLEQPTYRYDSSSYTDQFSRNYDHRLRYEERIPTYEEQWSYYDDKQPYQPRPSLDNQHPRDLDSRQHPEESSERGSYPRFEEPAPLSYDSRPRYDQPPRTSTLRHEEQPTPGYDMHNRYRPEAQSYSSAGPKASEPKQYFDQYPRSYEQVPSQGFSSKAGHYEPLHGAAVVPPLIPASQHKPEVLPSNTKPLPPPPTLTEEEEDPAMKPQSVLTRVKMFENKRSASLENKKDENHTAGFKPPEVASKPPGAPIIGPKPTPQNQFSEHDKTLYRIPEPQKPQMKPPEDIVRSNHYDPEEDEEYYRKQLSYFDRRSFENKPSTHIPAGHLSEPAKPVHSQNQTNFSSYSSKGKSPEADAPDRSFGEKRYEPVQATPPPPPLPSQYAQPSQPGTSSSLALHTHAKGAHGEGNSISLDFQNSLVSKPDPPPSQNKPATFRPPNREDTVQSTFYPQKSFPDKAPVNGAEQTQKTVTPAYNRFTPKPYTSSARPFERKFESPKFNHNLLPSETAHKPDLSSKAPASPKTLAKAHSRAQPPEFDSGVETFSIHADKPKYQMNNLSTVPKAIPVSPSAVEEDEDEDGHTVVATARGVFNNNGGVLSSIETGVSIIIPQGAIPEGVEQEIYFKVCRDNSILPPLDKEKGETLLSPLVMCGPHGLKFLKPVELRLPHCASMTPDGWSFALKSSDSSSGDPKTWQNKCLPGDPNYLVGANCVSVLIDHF
# UniProt A0A8I3PHM6: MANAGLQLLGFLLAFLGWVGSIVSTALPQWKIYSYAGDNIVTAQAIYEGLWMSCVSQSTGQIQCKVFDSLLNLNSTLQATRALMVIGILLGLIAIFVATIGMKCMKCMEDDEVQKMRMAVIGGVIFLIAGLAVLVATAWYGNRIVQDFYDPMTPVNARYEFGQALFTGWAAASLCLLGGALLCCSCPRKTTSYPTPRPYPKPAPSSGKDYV
# UniProt O60610: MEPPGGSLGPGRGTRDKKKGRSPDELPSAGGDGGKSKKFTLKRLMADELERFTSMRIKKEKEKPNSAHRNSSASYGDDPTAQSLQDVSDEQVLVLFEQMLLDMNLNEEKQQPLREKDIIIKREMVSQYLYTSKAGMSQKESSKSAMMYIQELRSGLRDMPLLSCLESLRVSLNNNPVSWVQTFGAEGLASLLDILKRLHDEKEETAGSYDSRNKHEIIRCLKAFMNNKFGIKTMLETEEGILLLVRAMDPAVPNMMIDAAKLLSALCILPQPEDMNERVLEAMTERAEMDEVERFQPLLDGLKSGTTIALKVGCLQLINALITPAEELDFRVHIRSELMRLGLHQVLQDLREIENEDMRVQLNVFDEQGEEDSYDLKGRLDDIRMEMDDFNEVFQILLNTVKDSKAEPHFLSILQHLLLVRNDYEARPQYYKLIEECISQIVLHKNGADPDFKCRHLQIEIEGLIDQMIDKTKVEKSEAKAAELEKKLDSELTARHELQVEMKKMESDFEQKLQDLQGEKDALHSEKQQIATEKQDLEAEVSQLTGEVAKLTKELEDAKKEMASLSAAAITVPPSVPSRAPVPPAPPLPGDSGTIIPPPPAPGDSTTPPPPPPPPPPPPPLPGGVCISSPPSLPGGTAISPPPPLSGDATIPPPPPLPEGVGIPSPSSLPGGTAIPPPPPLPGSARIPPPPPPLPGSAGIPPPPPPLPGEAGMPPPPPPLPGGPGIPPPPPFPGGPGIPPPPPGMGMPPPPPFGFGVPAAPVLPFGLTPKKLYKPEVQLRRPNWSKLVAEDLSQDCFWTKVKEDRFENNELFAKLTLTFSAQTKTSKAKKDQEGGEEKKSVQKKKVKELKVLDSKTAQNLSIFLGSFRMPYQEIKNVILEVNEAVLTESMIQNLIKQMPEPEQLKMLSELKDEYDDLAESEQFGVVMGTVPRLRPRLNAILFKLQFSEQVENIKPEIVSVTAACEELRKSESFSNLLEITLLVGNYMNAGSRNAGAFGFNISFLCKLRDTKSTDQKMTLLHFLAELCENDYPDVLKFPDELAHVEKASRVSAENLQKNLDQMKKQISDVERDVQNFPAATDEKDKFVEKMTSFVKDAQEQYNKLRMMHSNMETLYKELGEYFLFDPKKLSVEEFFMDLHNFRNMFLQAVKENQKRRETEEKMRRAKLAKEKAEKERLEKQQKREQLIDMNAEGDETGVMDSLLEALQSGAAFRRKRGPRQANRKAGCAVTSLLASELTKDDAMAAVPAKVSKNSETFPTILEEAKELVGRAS
# Where two headings read alike, the source gives them in different places. No constants are given. Whether binding was seen depends on the method and setting. Binding seen in cells or lysates may run through a third protein. Some binding calls cover weakened binding; strength is not graded here. Sequences can lack the tags named with a protein.
# T1: GFP-ARHGAP12a (UniProt Q8IWW6)
# T1 sequence: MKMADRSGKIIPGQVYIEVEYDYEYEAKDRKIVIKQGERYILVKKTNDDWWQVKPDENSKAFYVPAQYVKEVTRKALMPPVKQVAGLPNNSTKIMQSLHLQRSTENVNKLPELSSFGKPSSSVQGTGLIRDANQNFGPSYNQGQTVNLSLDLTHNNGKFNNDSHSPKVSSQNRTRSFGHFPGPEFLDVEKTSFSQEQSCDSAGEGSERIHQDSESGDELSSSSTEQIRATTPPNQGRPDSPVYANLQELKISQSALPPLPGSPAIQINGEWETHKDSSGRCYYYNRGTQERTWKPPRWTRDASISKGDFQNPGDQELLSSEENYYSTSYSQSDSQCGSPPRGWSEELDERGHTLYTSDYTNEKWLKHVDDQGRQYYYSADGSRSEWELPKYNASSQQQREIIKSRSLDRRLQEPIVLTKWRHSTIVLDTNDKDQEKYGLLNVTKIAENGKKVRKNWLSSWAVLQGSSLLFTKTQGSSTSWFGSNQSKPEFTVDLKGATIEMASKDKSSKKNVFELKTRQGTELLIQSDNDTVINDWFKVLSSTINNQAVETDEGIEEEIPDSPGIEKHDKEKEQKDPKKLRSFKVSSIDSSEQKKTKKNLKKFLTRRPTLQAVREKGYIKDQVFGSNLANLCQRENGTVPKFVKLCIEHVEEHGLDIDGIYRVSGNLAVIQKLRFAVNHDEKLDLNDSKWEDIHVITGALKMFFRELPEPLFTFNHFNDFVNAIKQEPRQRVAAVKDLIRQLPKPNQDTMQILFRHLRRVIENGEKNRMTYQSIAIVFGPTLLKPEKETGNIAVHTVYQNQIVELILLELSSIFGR
# T2: GST-SH3 (UniProt Q8IWW6)
# T2 sequence: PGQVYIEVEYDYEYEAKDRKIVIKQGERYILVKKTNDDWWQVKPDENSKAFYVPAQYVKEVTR
# Experiments:
# GFP-ARHGAP12a [1] = biological target: T1, GFP-ARHGAP12a; assay: co-IP
# GFP-ARHGAP12a [2] = biological target: T1, GFP-ARHGAP12a; assay: co-IP; remark: listed apart in the source
# GST-SH3 = biological target: T2, GST-SH3; assay: pull-down
Molecule,binding (GFP-ARHGAP12a [1]),binding (GFP-ARHGAP12a [2]),binding (GST-SH3)
"Abi1 (endogenous, 293T) (from UniProt Q8IZP0 1-508)",binds,,
"Mena (endogenous, 293T) (from UniProt Q8N8S7 1-591)",no binding,,
"N-WASP (endogenous, 293T) (from UniProt O00401 1-505)",binds,,
"ZO-1 (endogenous, MDCK-II) (from UniProt O97758 1-1769)",binds,,
"claudin-1 (endogenous, MDCK-II) (from UniProt A0A8I3PHM6 1-211)",no binding,,
"mDia1 (endogenous, 293T) (from UniProt O60610 1-1272)",no binding,,
"ZO-2 (endogenous, MDCK-II) (protein, UniProt Q95168 1-1174) MEELIWEQYTVTLQKDSKRGFGIAVSGGRDNPHFENGETSIVISDVLPGGPADGLLQENDRVVMVNGTPMEDVLHSFAVQQLRKSGKIAAIVVKRPRKVQLAPPQGSLPVDEDDRAFEVMDEFDGRSARSGYSERSRRSSHGGRSRSWEDSPERGRPHERAWSQERERSRGRSLERGLDHDDDYRRPRERSRGRSLERGLDHDDDYGRPGERSHGMSTDRGYDRGYDRGYDRGYDRTYSPEAEYGRRTQPDARHAGSRSRSREHLRSRSPSPELRGRPDHAGQPDSDRPIGVLLMKSKANEEYGLRLGSQIFIKQMTRTALATKDGNLHEGDIILKINGTVTENMSLTDARKLIEKSRGKLQLVVLRDSKQTLINIPSLNDSDSEIEDISEIESNRSFSPEERRQQYSDYDYHSSNEKLKERPNSREDMQNRWSRMGATPTPFKSMGDIASVVGTENSKEPRYQEEPPAPQPKAAPRTFLRPSPEDEAIYGPNTKMVRFKKGDSVGLRLAGGNDVGIFVAGIQEGTSAEQEGLQEGDQILKVNTQDFRGLVREDAVLYLLEIPKGEMVTILAQSRADVYRDILACGRGDSFFIRSHFECEKETPQSLAFSRGEVFRVVDTLYDGKLGHWLAVRIGNELEKGLIPNKSRAEQMASVQNAQRDNAGDRADFWRMRGQRSGMKKNLRKSREDLTAAVSVSTKFPAYERVLLREAGFKRPVVLFGPIADIALEKLANELPDLFQTAKTEPKDAGSEKSSGVVRLNTVRQIIEQDKHALLDVTPKAVDLLNYTQWFPIVIFFNPDSRQGVKTMRQRLNPTSNKSSRKLYDQANKLKKTCAHLFTATINLNSANDSWFGSLKDTIQHQQGEAVWVSEGKMEGMDDDPEDRMSYLTAMGADYLSCDSRLISDFEDTDGEGGAYTDNELDEPAEEPLVSSITRSSEPVQHEESIRKPSPEPRAQMRRAASRDQLRDSSPPPAFKPEPPKAKTQNREESFDISRSHDYKSNPSAVAGNEVSGASTRSCPPPIAAKPSFGRSILKPSTPVPSPESEEVGEGSEEQEGAPKSVLGKVKIFEKMDHKARLQRMQELQEAQNARIEIAQKHPDIYAVPIKTHKPDPGLSQHTSSRPPEPQKGPSRLYQDPRGSYGSDAEEEEYRQQLSEHSKRGYYSQPSRYRDTEL",,binds,binds
